Laboratory results: article doi:10.1101/2023.01.31.526464
Where two headings read alike, the source gives them in different places. Results are given in words; binding and its absence hold for the method and conditions named. Binding seen in cells or lysates may run through a third protein. Some entries that bind do so weakly or less than the wild type.

Protein sequences, listed by entry. Tags and fused reporters are not part of them. Lines headed by an entry give the natural chain unless they say otherwise; changes in a name come on top.
UniProt O94822, whole entry: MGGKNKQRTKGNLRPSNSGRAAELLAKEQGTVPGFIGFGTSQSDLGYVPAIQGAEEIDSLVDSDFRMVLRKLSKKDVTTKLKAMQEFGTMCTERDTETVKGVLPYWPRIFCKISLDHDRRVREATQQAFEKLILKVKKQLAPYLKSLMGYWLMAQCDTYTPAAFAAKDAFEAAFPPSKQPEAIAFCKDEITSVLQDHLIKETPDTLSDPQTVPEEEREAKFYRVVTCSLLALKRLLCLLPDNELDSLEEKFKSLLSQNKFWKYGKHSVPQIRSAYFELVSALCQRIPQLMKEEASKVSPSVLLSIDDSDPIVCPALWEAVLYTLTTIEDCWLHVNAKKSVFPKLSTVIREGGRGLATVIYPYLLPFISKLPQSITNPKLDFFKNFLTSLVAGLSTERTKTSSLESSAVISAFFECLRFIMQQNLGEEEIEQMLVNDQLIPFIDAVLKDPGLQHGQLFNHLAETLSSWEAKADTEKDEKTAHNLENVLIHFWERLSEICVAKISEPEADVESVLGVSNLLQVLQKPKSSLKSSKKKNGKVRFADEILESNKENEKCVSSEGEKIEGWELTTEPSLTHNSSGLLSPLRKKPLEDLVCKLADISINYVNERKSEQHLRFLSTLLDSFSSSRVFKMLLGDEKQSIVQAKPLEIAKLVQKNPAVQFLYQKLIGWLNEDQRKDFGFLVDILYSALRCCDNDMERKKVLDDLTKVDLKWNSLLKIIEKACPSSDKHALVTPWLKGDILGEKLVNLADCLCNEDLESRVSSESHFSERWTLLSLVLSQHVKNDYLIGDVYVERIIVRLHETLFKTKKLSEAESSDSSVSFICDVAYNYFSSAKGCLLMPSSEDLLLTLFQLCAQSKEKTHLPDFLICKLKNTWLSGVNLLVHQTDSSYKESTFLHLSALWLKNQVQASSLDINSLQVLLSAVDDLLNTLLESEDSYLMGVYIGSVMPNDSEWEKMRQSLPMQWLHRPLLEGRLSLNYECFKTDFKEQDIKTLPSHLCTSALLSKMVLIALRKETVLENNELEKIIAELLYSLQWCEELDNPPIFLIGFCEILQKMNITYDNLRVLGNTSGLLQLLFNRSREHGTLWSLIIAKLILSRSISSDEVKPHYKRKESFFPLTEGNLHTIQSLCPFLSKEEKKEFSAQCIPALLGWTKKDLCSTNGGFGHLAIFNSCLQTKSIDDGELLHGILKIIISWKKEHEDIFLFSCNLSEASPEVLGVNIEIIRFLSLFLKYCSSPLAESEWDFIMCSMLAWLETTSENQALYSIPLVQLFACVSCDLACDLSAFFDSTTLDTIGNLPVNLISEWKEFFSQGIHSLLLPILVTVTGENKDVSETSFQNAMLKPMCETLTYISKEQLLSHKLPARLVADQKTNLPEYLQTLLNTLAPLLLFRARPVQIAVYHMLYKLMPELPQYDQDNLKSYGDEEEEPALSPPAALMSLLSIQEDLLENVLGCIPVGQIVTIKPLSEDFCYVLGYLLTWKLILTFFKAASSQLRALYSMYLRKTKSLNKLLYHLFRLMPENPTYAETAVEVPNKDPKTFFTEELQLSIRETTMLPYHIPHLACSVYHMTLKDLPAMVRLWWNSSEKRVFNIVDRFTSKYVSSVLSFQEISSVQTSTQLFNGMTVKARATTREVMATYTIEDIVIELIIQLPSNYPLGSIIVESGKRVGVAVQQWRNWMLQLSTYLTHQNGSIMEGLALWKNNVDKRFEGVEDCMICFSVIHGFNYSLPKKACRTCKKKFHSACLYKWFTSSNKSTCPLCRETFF

B1: ZNF598 (protein, UniProt Q86UK7 1-904)
chain: MAAAGGAEGRRAALEAAAAAAPERGGGSCVLCCGDLEATALGRCDHPVCYRCSTKMRVLCEQRYCAVCREELRQVVFGKKLPAFATIPIHQLQHEKKYDIYFADGKVYALYRQLLQHECPRCPELPPFSLFGDLEQHMRRQHELFCCRLCLQHLQIFTYERKWYSRKDLARHRMQGDPDDTSHRGHPLCKFCDERYLDNDELLKHLRRDHYFCHFCDSDGAQDYYSDYAYLREHFREKHFLCEEGRCSTEQFTHAFRTEIDLKAHRTACHSRSRAEARQNRHIDLQFSYAPRHSRRNEGVVGGEDYEEVDRYSRQGRVARAGTRGAQQSRRGSWRYKREEEDREVAAAVRASVAAQQQEEARRSEDQEEGGRPKKEEAAARGPEDPRGPRRSPRTQGEGPGPKETSTNGPVSQEAFSVTGPAAPGCVGVPGALPPPSPKLKDEDFPSLSASTSSSCSTAATPGPVGLALPYAIPARGRSAFQEEDFPALVSSVPKPGTAPTSLVSAWNSSSSSKKVAQPPLSAQATGSGQPTRKAGKGSRGGRKGGPPFTQEEEEDGGPALQELLSTRPTGSVSSTLGLASIQPSKVGKKKKVGSEKPGTTLPQPPPATCPPGALQAPEAPASRAEGPVAVVVNGHTEGPAPARSAPKEPPGLPRPLGSFPCPTPQEDFPALGGPCPPRMPPPPGFSAVVLLKGTPPPPPPGLVPPISKPPPGFSGLLPSPHPACVPSPATTTTTKAPRLLPAPRAYLVPENFRERNLQLIQSIRDFLQSDEARFSEFKSHSGEFRQGLISAAQYYKSCRDLLGENFQKVFNELLVLLPDTAKQQELLSAHTDFCNREKPLSTKSKKNKKSAWQATTQQAGLDCRVCPTCQQVLAHGDASSHQALHAARDDDFPSLQAIARIIT

Legend:
[1] = target: FLAG-BPLF1^C61A (catalytic mutant) (Epstein-Barr virus) (UniProt P03186); experiment: co-IP
[2] = target: FLAG-BPLF1^C61A (catalytic mutant) (Epstein-Barr virus) (UniProt P03186); experiment: co-IP; remark: listed apart in the source

Molecule	binding [1]	binding [2]
Listerin-1 (LTN1) (from UniProt O94822 1-1766)	binds	
B1		binds
